A number of entries come with more than one value. Only these are listed. The source may hold further records. Results that share an entry do not match, cause unknown; they may come from other doses, times, organisms or constructs than stated.
Assays:
Experiment in all cases: Miniaturized 33P-based kinase screening assay
Settings in all cases: max 10 µM, 3-fold serial dilution, n = 2
[1] = target: Akt1 (Homo sapiens, UniProt P31749)
Method: (§1) The RSK2 in vitro kinase inhibition assay utilized was a modification of protocols established by Nguyen et al.. Additional protocols that confirmed the results depicted in Figure 4 and evaluated kinase inhibitory activity in a random selection of protein kinases (Table 3) were conducted at Reaction Biology Corporation (Malvern, PA). This was a miniaturized ^33P-based screening assay.

Sequences of proteins named here, by UniProt entry; tags and fusion partners are left off.
UniProt P31749, whole entry: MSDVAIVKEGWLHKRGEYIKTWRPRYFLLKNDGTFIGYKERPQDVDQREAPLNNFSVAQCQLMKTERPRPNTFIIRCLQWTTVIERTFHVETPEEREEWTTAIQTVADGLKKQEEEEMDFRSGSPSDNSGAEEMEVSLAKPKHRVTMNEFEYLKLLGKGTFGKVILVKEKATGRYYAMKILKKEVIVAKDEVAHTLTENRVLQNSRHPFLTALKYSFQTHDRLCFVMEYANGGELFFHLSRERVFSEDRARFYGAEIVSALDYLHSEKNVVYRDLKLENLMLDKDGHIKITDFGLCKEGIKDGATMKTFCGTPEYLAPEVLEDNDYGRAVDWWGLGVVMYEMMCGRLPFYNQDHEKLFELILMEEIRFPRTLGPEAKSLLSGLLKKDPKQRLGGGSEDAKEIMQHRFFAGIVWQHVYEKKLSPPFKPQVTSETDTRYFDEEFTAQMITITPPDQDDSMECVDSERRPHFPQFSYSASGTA

[2] = target: PKA (Homo sapiens, UniProt P17612)
Method: as §1

[3] = system: PKC
Method: as §1

IC50 [1]: No inhibitory effect and > 10 µM | IC50 [2]: No inhibitory effect and > 10 µM | IC50 [3]: No inhibitory effect and > 10 µM
Structure (SMILES): Cc1cc(Nc2ncc3c(n2)N(C)C(=O)N(c2cc(NC(=O)c4cccc(C(F)(F)F)c4)ccc2C)C3)n(C)n1 [SC-1]

Reference: PMC3578829, “A Small Molecule (Pluripotin) as a Tool for Studying Cancer Stem Cell Biology: Proof of Concept” (PLoS ONE, 2013)
